# Some results were stated once for a whole list of compounds, not compound by compound.
# Amino acid sequences for entries named in this document (tags omitted).
# UniProt Q00535, whole entry: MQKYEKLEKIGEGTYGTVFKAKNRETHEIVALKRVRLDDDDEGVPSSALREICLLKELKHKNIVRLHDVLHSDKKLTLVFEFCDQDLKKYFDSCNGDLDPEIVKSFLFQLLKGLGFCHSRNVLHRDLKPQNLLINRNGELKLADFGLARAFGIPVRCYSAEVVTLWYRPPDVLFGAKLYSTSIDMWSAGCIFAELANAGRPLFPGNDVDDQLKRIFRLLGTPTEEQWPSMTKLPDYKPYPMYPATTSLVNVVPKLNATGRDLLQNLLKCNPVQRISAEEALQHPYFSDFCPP
# Columns and labels:
# [1] = biological target: T1, His-tagged cyclin 2/CDK2 (cyclin E2/CDK2) (Homo sapiens, UniProt P24941); assay: CDK2 kinase assay; format: biochemical; conditions: 1 nM enzyme, 1 μM Histone-H1, 25 μM ATP, 60 min at 25° C.
# T1 construct: made in house; host or cells: Hi5 insect cells (baculovirus, pFastBacDual)
# [2] = biological target: T2, His-tagged p25/CDK5 (Homo sapiens, UniProt Q00535); assay: CDK5 kinase assay; format: biochemical; conditions: 1 nM enzyme, 1 μM Histone-H1, 25 μM ATP, 60 min at 25° C.
# T2 construct: made in house; host or cells: Hi5 insect cells (baculovirus co-infection; pFastBacHTb for p25, pFastBac1 for CDK5)
Compound,IC50 [1],IC50 [2]
"CCOC(=O)c1cc(-c2csc(-c3ccncc3)n2)c(=O)[nH]c1CC [Example 1, Ethyl 2-ethyl-6-oxo-5-(2-(4-pyridinyl)-1,3-thiazol-4-yl)-1,6-dihydro-3-pyridinecarboxylate]",< 500 nM,< 500 nM
"CCOC(=O)c1cc(-c2csc(CS(=O)(=O)c3cccs3)n2)c(=O)[nH]c1CC [Example 2, Ethyl 2-ethyl-6-oxo-5-{2-[(thienylsulfonyl)methyl](1,3-thiazol-4-yl)}-1,6-dihydro-3-pyridinecarboxylate]",< 500 nM,< 500 nM
"CCOC(=O)c1cc(-c2csc(CS(=O)(=O)c3ccccc3)n2)c(=O)[nH]c1CC [Example 3, Ethyl 2-ethyl-6-oxo-5-{2-[(phenylsulfonyl)methyl](1,3-thiazol-4-yl)}-1,6-dihydro-3-pyridinecarboxylate]",< 500 nM,< 500 nM
"CCOC(=O)c1cc(-c2csc(CS(=O)(=O)c3ccccc3)n2)c(=O)[nH]c1C(F)(F)F [Example 5, Ethyl 6-oxo-5-{2-[(phenylsulfonyl)methyl](1,3-thiazol-4-yl)}-2-(trifluoromethyl)-1,6-dihydro-3-pyridinecarboxylate]",–,< 500 nM
"CCOC(=O)c1cc(-c2csc(CS(=O)(=O)c3ccccn3)n2)c(=O)[nH]c1C(F)(F)F [Example 7, Ethyl 6-oxo-5-{2-[(2-pyridylsulfonyl)methyl](1,3-thiazol-4-yl)}-2-(trifluoromethyl)-1,6-dihydro-3-pyridinecarboxylate]",–,< 500 nM
"CCOC(=O)c1cc(-c2csc(CS(=O)(=O)c3cccs3)n2)c(=O)[nH]c1C(F)(F)F [Example 8, Ethyl 6-oxo-5-{2-[(2-thienylsulfonyl)methyl](1,3-thiazol-4-yl)}-2-(trifluoromethyl)-1,6-dihydro-3-pyridinecarboxylate]",–,< 500 nM
CCOC(=O)c1cc(-c2csc(-c3ccncc3)n2)c(=O)[nH]c1C(C)C [Example 10],< 500 nM,< 500 nM
"CCOC(=O)c1cc(-c2csc(CS(=O)(=O)c3cccs3)n2)c(=O)[nH]c1C(C)C [Example 11, Ethyl 2-isopropyl-6-oxo-5-{2-[(thienylsulfonyl)methyl](1,3-thiazol-4-yl)}-1,6-dihydro-3-pyridinecarboxylate]",< 500 nM,< 500 nM
"CCOC(=O)c1cc(-c2csc(CS(=O)(=O)c3ccccc3)n2)c(=O)[nH]c1C(C)C [Example 12, Ethyl 2-isopropyl-6-oxo-5-{2-[(phenylsulfonyl)methyl](1,3-thiazol-4-yl)}-1,6-dihydro-3-pyridinecarboxylate]",< 500 nM,< 500 nM
CCCc1[nH]c(=O)c(-c2csc(-c3ccncc3)n2)cc1C(=O)OCC [Example 13],< 500 nM,< 500 nM
"CCCc1[nH]c(=O)c(-c2csc(CS(=O)(=O)c3ccccc3)n2)cc1C(=O)OCC [Example 14, Ethyl 2-propyl-6-oxo-5-{2-[(phenylsulfonyl)methyl](1,3-thiazol-4-yl)}-1,6-dihydro-3-pyridinecarboxylate]",< 500 nM,< 500 nM
"CCCc1[nH]c(=O)c(-c2csc(CS(=O)(=O)c3cccs3)n2)cc1C(=O)OCC [Example 15, Ethyl 2-propyl-6-oxo-5-{2-[(thienylsulfonyl)methyl](1,3-thiazol-4-yl)}-1,6-dihydro-3-pyridinecarboxylate]",< 500 nM,< 500 nM
"CCOC(=O)c1cc(-c2csc(-c3ccncc3)n2)c(=O)[nH]c1COCc1ccccc1 [Example 16, Ethyl 6-oxo-2-[(phenylmethoxy)methyl]-5-(2-(4-pyridyl)(1,3-thiazol-4-yl))-1,6-dihydro-3-pyridinecarboxylate]",< 500 nM,< 500 nM
"CCOC(=O)c1cc(-c2csc(CS(=O)(=O)c3ccccc3)n2)c(=O)[nH]c1COCc1ccccc1 [Example 17, Ethyl 6-oxo-2-[(phenylmethoxy)methyl]-5-{2-[(phenylsulfonyl)methyl](1,3-thiazol-4-yl)}-1,6-dihydro-3-pyridinecarboxylate]",< 500 nM,< 500 nM
"O=C(OCc1ccccc1)N1CCc2[nH]c(=O)c(-c3csc(-c4ccncc4)n3)cc2C1 [Example 18, Phenylmethyl 2-oxo-3-(2-(4-pyridyl)(1,3-thiazol-4-yl))-1,5,6,7,8-pentahydropyridino[3,2-c]pyridine-6-carboxylate]",–,< 500 nM
"O=c1[nH]c2c(cc1-c1csc(-c3ccncc3)n1)COCC2 [Example 19, 3-(2-(4-Pyridyl)-1,3-thiazol-4-yl)-1,7,8-trihydro-5H-pyrano[4,3-b]pyridin-2-one]",–,< 500 nM
"CCOC(=O)c1cc(-c2csc(CS(=O)(=O)c3cccs3)n2)c(=O)[nH]c1C [Example 24, Ethyl 2-methyl-6-oxo-5-{2-[(2-thienylsulfonyl)methyl](1,3-thiazol-4-yl)}-1,6-dihydro-3-pyridinecarboxylate]",< 500 nM,< 500 nM
CCOC(=O)c1cc(-c2csc(CS(=O)(=O)c3ccc(Cl)cc3)n2)c(=O)[nH]c1C [Example 25],< 500 nM,< 500 nM

Compound,IC50 [1],IC50 [2]
"CCOC(=O)c1cc(-c2csc(CS(=O)(=O)Cc3ccc(F)cc3)n2)c(=O)[nH]c1C [Example 26, Ethyl 5-[2-({[(4-fluorophenyl)methyl]sulfonyl}mthyl)(1,3-thiazol-4-yl)]-2-methyl-6-oxo-1,6-dihydro-3-pyridinecarboxylate]",< 500 nM,< 500 nM
CCOC(=O)c1cc(-c2csc(-c3cccs3)n2)c(=O)[nH]c1C [Example 27],–,< 500 nM
"CCOC(=O)c1cc(-c2csc(CSc3ccccc3)n2)c(=O)[nH]c1C [Example 28, Ethyl 2-methyl-6-oxo-5-{2-(phenylthiomethyl)(1,3-thiazol-4-yl)}-1,6-dihydro-3-pyridinecarboxylate]",< 500 nM,< 500 nM
CCOC(=O)c1cc(-c2csc(-c3ccnc(CC)c3)n2)c(=O)[nH]c1C [Example 29],< 500 nM,< 500 nM
"CCOC(=O)c1cc(-c2csc(CS(=O)(=O)Cc3ccco3)n2)c(=O)[nH]c1C [Example 37, Ethyl 5-(2-{[(2-furylmethyl)sulfonyl]methyl}(1,3-thiazol-4-yl))-2-methyl-6-oxo-1,6-dihydro-3-pyridinecarboxylate]",–,< 500 nM
CCOC(=O)c1cc(-c2csc(-c3ccnc(Cl)c3)n2)c(=O)[nH]c1C [Example 40],< 500 nM,< 500 nM
"CCOC(=O)c1cc(-c2csc(-c3c(Cl)cncc3Cl)n2)c(=O)[nH]c1C [Example 42, Ethyl 5-[2-(3,5-dichloro-pyridyl-4-yl)-thiazol-4-yl]-2-methyl-6-oxo-1,6-dihydro-3-pyridinecarboxylate]",< 500 nM,–
"CCOC(=O)c1cc(-c2csc(-c3ccnc(NCC(C)C)c3)n2)c(=O)[nH]c1C [Example 46, Ethyl 2-methyl-5-(2-(2-((2-methylpropyl)amino)-4-pyridinyl)-1,3-thiazol-4-yl)-6-oxo-1,6-dihydro-3-pyridinecarboxylate]",< 500 nM,< 500 nM
"CCOC(=O)c1cc(-c2csc(-c3ccnc(NCc4cccnc4)c3)n2)c(=O)[nH]c1C [Example 47, Ethyl 2-methyl-6-oxo-5-(2-(2-((3-pyridinylmethyl)amino)-4-pyridinyl)-1,3-thiazol-4-yl)-1,6-dihydro-3-pyridin carboxylate]",< 500 nM,< 500 nM
"COc1ccc(CNC(=O)c2cc(-c3csc(-c4ccnc(NCc5ccc(OC)cc5)c4)n3)c(=O)[nH]c2C)cc1 [Example 63, 5-{2-[2-(4-Methoxy-benzyamino)-pyridin-4-yl]-thiazol-4-yl}-2-methyl-6-oxo-1,6-dihydropyridine-3-carboxylic acid 4-methoxy-benzylamide]",–,< 500 nM
"Cc1ccc(-c2csc(-c3ccncc3)n2)c(=O)[nH]1 [Example 72, 6-Methyl-3-(2-(4-pyridyl)(1,3-thiazol-4-yl))-(1H)-pyridin-2-one]",–,< 500 nM
"CCOC(=O)c1cc(-c2csc(-c3ccnc(OC)c3)n2)c(=O)[nH]c1C [Example 74, Ethyl 2-methyl-5-(2-(2-(methoxy)-4-pyridinyl)-1,3-thiazol-4-yl)-6-oxo-1,6-dihydro-3-pyridinecarboxylate]",–,< 500 nM
"CCOC(=O)c1cc(-c2csc(-c3ccncc3)n2)c(=O)[nH]c1C [Example 76, Ethyl 2-methyl-6-oxo-5-(2-(4-pyridyl)(1,3-thiazol-4-yl))-1,6-dihydro-3-pyridinecarboxylate]",< 500 nM,–
"CCOC(=O)c1cc(-c2csc(-c3ccncc3)n2)c(=O)[nH]c1C1CC1 [Example 79, Ethyl 2-cyclopropyl-6-oxo-5-(2-(4-pyridinyl)-1,3-thiazol-4-yl)-1,6-dihydro-3-pyridinecarboxylate]",–,< 500 nM
"CCc1[nH]c(=O)c(-c2csc(-c3ccncc3)n2)cc1N [Example 84, 5-Amino-6-ethyl-3-(2-(4-pyridinyl)-1,3-thiazol-4-yl)-2(1H)-pyridinone]",–,< 500 nM
"Cc1[nH]c(=O)c(-c2csc(-c3ccnc(NCc4ccccn4)c3)n2)cc1C(=O)NCc1ccccn1 [Example 88, 2-Methyl-6-oxo-N-(2-pyridinylmethyl)-5-(2-(2-((2-pyridinylmethyl)amino)-4-pyridinyl)-1,3-thiazol-4-yl)-1,6-dihydro-3-pyridinecarboxamide]",< 500 nM,–
"Cc1ccc(-c2csc(-c3ccnc(NCc4ccccn4)c3)n2)c(=O)[nH]1 [Example 89, 6-Methyl-3-(2-(2-((2-pyridinylmethyl)amino)-4-pyridinyl)-1,3-thiazol-4-yl)-2(1H)-pyridinone]",–,< 500 nM
"Cc1[nH]c(=O)c(-c2csc(-c3ccncc3)n2)cc1CO [Example 104, 5-Hydroxymethyl-6-methyl-3-(2-pyridin-4-yl-thiazol-4-yl)-1H-pyridin-2-one]",–,< 500 nM
